In PubChem BioAssay AID652054 (National Center for Advancing Translational Sciences (NCATS), 2013):
The campaign covered roughly 360,000 compounds. About 9,100 (2.5%) were called active. Inconclusive means that the source gave no clear call. Such entries were picked first, then a sample of the others. Rule as the data show it: active = max response below about -50%; inconclusive = no clear call, values can overlap the other calls; inactive = above that.

By UniProt entry, the sequences of proteins in these tests, tags left out.
UniProt P35462, whole entry, looked up: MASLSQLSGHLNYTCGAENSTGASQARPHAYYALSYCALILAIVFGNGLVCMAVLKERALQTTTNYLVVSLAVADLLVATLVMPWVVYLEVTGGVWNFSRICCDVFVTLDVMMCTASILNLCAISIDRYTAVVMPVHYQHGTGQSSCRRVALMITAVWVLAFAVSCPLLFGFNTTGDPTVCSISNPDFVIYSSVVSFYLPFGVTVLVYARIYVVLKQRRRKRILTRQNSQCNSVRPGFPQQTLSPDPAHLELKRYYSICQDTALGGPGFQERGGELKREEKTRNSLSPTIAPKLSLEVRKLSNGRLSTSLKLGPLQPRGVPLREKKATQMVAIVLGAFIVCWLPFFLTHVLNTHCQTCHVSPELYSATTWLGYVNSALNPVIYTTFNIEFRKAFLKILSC

The compounds below were run against D(3) dopamine receptor (Homo sapiens) (UniProt P35462) (assay: qHTS of D3 Dopamine Receptor Antagonist: qHTS). Conditions: D3R cells, DiscoveRx beta-arrestin luminescence, antagonist mode; active compounds read low.
How it was run: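 Cells plated overnight at 1500 cells/well, then exposed to library compounds with dopamine controls for 90 minutes at 37 degrees C. DiscoveRx reagent added for 30–60 minutes at room temperature; luminescence read, quantitative HTS format.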
% is scaled to controls: 0 for no effect and ±100 for the full control effect.

**Q.** With `CCC(CO)Oc1cc(NCc2cccnc2)c2ncn(C(C)C)c2c1` (centres undefined) as the compound, how does the max response, negative = inhibition read?
**A.** inconclusive: -44.3%

**Q.** For `OC1(c2ccc3ccccc3c2)CCN(Cc2ccccc2)C1` (centres undefined), which max response, negative = inhibition is on record?
**A.** inconclusive: -39.1%

**Q.** For `O=C(N/N=C/c1cccnc1)c1cccs1`, which max response, negative = inhibition is on record?
**A.** inconclusive: -31.3%

**Q.** For `COCCC(=O)NNS(=O)(=O)c1ccc(Cl)cc1`, which max response, negative = inhibition is on record?
**A.** inactive: -10.7%

**Q.** How did the max response, negative = inhibition turn out when `Nn1cnnc1N/N=C/c1ccc(F)cc1` was run?
**A.** inconclusive: -41.2%

**Q.** Which max response, negative = inhibition does the source give for `COC(=O)c1ccc(-n2nnnc2SCc2nn[nH]n2)cc1` here?
**A.** inconclusive: -34.8%

**Q.** How did the max response, negative = inhibition turn out when `COC(=O)CNC(=O)COC(=O)C(Cc1ccccc1)NC(=O)c1ccco1` (centres undefined) was run?
**A.** inconclusive: -44.9%

**Q.** How did the max response, negative = inhibition turn out when `Cc1ccc(/C=C2\CCCC3=C2NC(=S)NC3c2ccc(C)cc2)cc1` (centres undefined) was run?
**A.** inconclusive: -37.7%

**Q.** Which max response, negative = inhibition does the source give for `CCOC(=O)c1nn(-c2ccccc2)c(=O)c2c(NC(C)=O)scc12` here?
**A.** inactive: -8.38%

**Q.** `Cc1ccc(CNC(=O)C2CCN(C(=O)c3cccc(Cl)c3)CC2)cc1` was tested. Which max response, negative = inhibition did it give?
**A.** inactive: -10.2%

**Q.** How did the max response, negative = inhibition turn out when `COC(=O)c1cc(NS(=O)(=O)c2ccc(N3CCCCC3)c([N+](=O)[O-])c2)cc(C(=O)OC)c1` was run?
**A.** inconclusive: -38%

**Q.** With `Cc1cc(Br)ccc1OCCCCNCCO` as the compound, how does the max response, negative = inhibition read?
**A.** active: -60.4%

**Q.** `O=C(NCCCN1CCOCC1)c1c(O)c2cc(Br)cc(Br)c2[nH]c1=O` was tested. Which max response, negative = inhibition did it give?
**A.** inactive: -25%

**Q.** `COc1cc(-c2noc(C)c2C(=O)NCCCn2ccnc2)cc(OC)c1OC` was tested. Which max response, negative = inhibition did it give?
**A.** inconclusive: -44.8%

**Q.** For `O=C(COC(=O)c1nc(Cl)c(Cl)c(Cl)c1Cl)NCc1ccccc1`, which max response, negative = inhibition is on record?
**A.** inconclusive: -31.5%

**Q.** Which max response, negative = inhibition does the source give for `COc1ccccc1C1CC(c2ccco2)=NN1c1ccccc1` (centres undefined) here?
**A.** inactive: -21%

**Q.** Which max response, negative = inhibition does the source give for `N#Cc1c(F)cccc1NCc1cccnc1` here?
**A.** inconclusive: -47.5%

**Q.** For `Cc1ccc2oc(-c3cccc(NC(=O)Cc4cccs4)c3)nc2c1`, which max response, negative = inhibition is on record?
**A.** inconclusive: -36.7%

**Q.** For `NC(c1csc(Nc2ccc(C(=O)NCCCO)cn2)n1)c1ccccc1Cl` (centres undefined), which max response, negative = inhibition is on record?
**A.** inconclusive: -36.3%

**Q.** For `O=C(Nc1nc(-c2ccccc2)cs1)c1cccc([N+](=O)[O-])c1`, which max response, negative = inhibition is on record?
**A.** active: -69.1%

**Q.** `Cc1ccc(C)c(C(O)c2ncc(-c3ccccc3Cl)[nH]2)c1` (centres undefined) was tested. Which max response, negative = inhibition did it give?
**A.** inactive: 19.2%

**Q.** With `CCS(=O)(=O)Nc1c(C(=O)OC)[nH]c2ccccc12` as the compound, how does the max response, negative = inhibition read?
**A.** inconclusive: -33.3%

**Q.** With `CCCc1nnc(NC(=O)CCC(=O)N2CCN(Cc3ccc(Cl)cc3)CC2)s1` as the compound, how does the max response, negative = inhibition read?
**A.** inactive: -1.84%

**Q.** How did the max response, negative = inhibition turn out when `CCOCC(O)CSCc1ccc(Cl)cc1` (centres undefined) was run?
**A.** inconclusive: -35.2%

**Q.** For `COc1ccc(CCNC(=S)NC2CCN(Cc3ccccc3)CC2)cc1`, which max response, negative = inhibition is on record?
**A.** active: -83.3%

**Q.** Which max response, negative = inhibition does the source give for `O=C(O)C(O)C(O)c1nc2ccccc2[nH]1` (centres undefined) here?
**A.** inactive: -15.6%

**Q.** With `CC(=O)c1cccc(CN2CCCC(N3CCN(c4ccccc4F)CC3)C2)c1` (centres undefined) as the compound, how does the max response, negative = inhibition read?
**A.** inconclusive: -46.6%

**Q.** `CCc1ccc(C2c3[nH]c4ccccc4c3CCN2C(=O)CN2CCN(CC)CC2)cc1` (centres undefined) was tested. Which max response, negative = inhibition did it give?
**A.** active: -55.2%

**Q.** How did the max response, negative = inhibition turn out when `O=C1Nc2c(Br)cccc2C1=O` was run?
**A.** active: -93.9%

**Q.** For `Cc1ccc(C)c(OCC(=O)Nc2cc(NC(=O)COc3cc(C)ccc3C)cc(C(=O)O)c2)c1`, which max response, negative = inhibition is on record?
**A.** inconclusive: -35.9%

**Q.** How did the max response, negative = inhibition turn out when `Cc1cc2c(cc1C)N(C(=O)CSC1=NCCS1)C(C)(C)c1ssc(=S)c1-2` was run?
**A.** inconclusive: -35.2%

**Q.** For `N#C/C(=C(/O)c1ccco1)c1nc2ccccc2s1`, which max response, negative = inhibition is on record?
**A.** inconclusive: -37.8%

**Q.** With `O=C1C=C(c2ccc3c(c2)OCO3)C[C@@H](c2ccc3c(c2)OCO3)C1` as the compound, how does the max response, negative = inhibition read?
**A.** inactive: -15.8%

**Q.** Which max response, negative = inhibition does the source give for `CC(C)OCCCNC(=S)N1CCC(C(=O)c2ccc(Cl)cc2)CC1` here?
**A.** inactive: 20.8%

**Q.** `CSCc1cc(N(C)c2ccccc2)nc(-c2ccccn2)n1` was tested. Which max response, negative = inhibition did it give?
**A.** active: -75.4%

**Q.** With `CC(C)c1ccc(N2C(=O)CC(Sc3ncn[nH]3)C2=O)cc1` (centres undefined) as the compound, how does the max response, negative = inhibition read?
**A.** inconclusive: -34.6%

**Q.** How did the max response, negative = inhibition turn out when `O=Cc1ccc(O)c2ncccc12` was run?
**A.** active: -83.4%

**Q.** How did the max response, negative = inhibition turn out when `CCOc1cc(/C=C2/SC(=S)N(Cc3ccccc3)C2=O)ccc1O` was run?
**A.** inconclusive: -34.2%

**Q.** With `CC1(Cc2ccc(C(F)(F)F)o2)C(=O)Nc2ccc(-c3cccc(C(F)(F)F)c3)cc21` (centres undefined) as the compound, how does the max response, negative = inhibition read?
**A.** inactive: 32.4%

**Q.** For `Cc1cnc(NC(=O)c2nn(C)cc2[N+](=O)[O-])s1`, which max response, negative = inhibition is on record?
**A.** inactive: -2.58%

**Q.** Which max response, negative = inhibition does the source give for `O=C(CN1C2CCCC1CC(NC(=O)c1ccco1)C2)Nc1ccccc1` (centres undefined) here?
**A.** active: -58.2%

**Q.** With `CC(=O)c1sc(NC(=O)COc2ccc([N+](=O)[O-])cc2)nc1C` as the compound, how does the max response, negative = inhibition read?
**A.** inconclusive: -32.2%

**Q.** For `COc1ccc(C(CNC(=O)c2cccc(NS(=O)(=O)c3ccccc3)c2)N(C)C)cc1` (centres undefined), which max response, negative = inhibition is on record?
**A.** inconclusive: -49.6%

**Q.** How did the max response, negative = inhibition turn out when `Cc1cccc(N=Nc2c(C)nn(-c3ccccc3)c2N)c1C` was run?
**A.** inactive: 0.24%

**Q.** With `CNC(=S)NC1CC2CCCC(C1)N2Cc1ccc(C)cc1` (centres undefined) as the compound, how does the max response, negative = inhibition read?
**A.** active: -116%

**Q.** `COc1ccc(C(C)NC(=O)CCc2ccccc2)cc1` (centres undefined) was tested. Which max response, negative = inhibition did it give?
**A.** inactive: 16.5%

**Q.** How did the max response, negative = inhibition turn out when `Cc1ccc(CN2CCN(Cc3ccccc3C(F)(F)F)CC2)cc1` was run?
**A.** active: -72.4%

**Q.** Which max response, negative = inhibition does the source give for `Nc1ccc(C(=O)OCC(=O)N2CCN(C(=O)c3ccco3)CC2)cc1[N+](=O)[O-]` here?
**A.** inconclusive: -31.1%

**Q.** Which max response, negative = inhibition does the source give for `CC1CC(C)CN(C(=O)CSc2ncnc3sccc23)C1` (centres undefined) here?
**A.** inactive: 2.22%

**Q.** How did the max response, negative = inhibition turn out when `N#Cc1c(N2CCCC(O)C2)nc(N)c2c(N)nc3c(c12)CC(=O)N3C12CC3CC(CC(C3)C1)C2` (centres undefined) was run?
**A.** inconclusive: -32.7%

**Q.** With `CCN(CC)S(=O)(=O)c1ccc(N2CCOCC2)c(NC(=O)Cc2cccc3ccccc23)c1` as the compound, how does the max response, negative = inhibition read?
**A.** inconclusive: -38.7%

**Q.** How did the max response, negative = inhibition turn out when `COc1cccc(OCc2cc(C(=O)N3CCN(c4ccccc4OC)CC3)no2)c1` was run?
**A.** active: -63.1%

**Q.** For `OCCNCC(O)CN1c2ccccc2Sc2ccccc21` (centres undefined), which max response, negative = inhibition is on record?
**A.** inconclusive: -37.4%

**Q.** How did the max response, negative = inhibition turn out when `O=C1c2ccccc2-c2nc3ccccc3nc21` was run?
**A.** inconclusive: -30.4%

**Q.** For `COc1ccccc1-c1nn(Cc2ccccc2)cc1C(=O)NCC(c1ccco1)N1CCCC1` (centres undefined), which max response, negative = inhibition is on record?
**A.** inactive: 14.3%

**Q.** Which max response, negative = inhibition does the source give for `COC(=O)c1ccc(CN2CCc3ccc(NC(=O)c4ccncc4)cc3C2)cc1` here?
**A.** inconclusive: -30.9%

**Q.** For `COCOCCn1cc(CN2CCS(=O)(=O)N(Cc3ccc(-c4cccc(N(C)C)c4)cc3)C(C(C)C)C2=O)nn1` (centres undefined), which max response, negative = inhibition is on record?
**A.** inconclusive: -49.8%

**Q.** `Cc1nc2ccc(NC(=O)NCCO)cc2s1` was tested. Which max response, negative = inhibition did it give?
**A.** inconclusive: -31.7%

**Q.** Which max response, negative = inhibition does the source give for `COc1ccc(C2C(C(=O)NCCN(C)C)c3cc(OC)c(OC)cc3C(=O)N2C)cc1OC` (centres undefined) here?
**A.** inactive: -22.8%
